## Library screen at single concentrations

The values are deposited in ChEMBL (CHEMBL3988442, “University of Dundee, Small-Polar-MMV Screening Library” (2021)).

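Assay of Toxoplasma gondii numbers, read through their beta-galactosidase reporter with a colour substrate. Tested at 10 µM. The record gives no direction; the compounds picked for IC50 retests had high values, so higher reads as fewer parasites. About 67,000 compounds were tested under these conditions; 0.38% (about 260) showed 50% or more at least once.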

Each number is a percent effect as filed.
The controls that fix the scale are not given in the record; negative values are as filed.
The compounds are a random part of those screened.

| structure | effect |
|---|---|
| `CC(C(=O)N1CCCN(c2ncccc2C#N)CC1)n1cccn1` (stereo not given) | 3.076 |
| `COc1ccccc1OCC(=O)n1ncc(C#N)c1N` | 4.4 |
| `CC1c2ccc(F)cc2CCN1C(=O)c1nc(=O)[nH][nH]1` (stereo not given) | 1.452 |
| `CCn1ncc(-c2cc(C(F)F)nc3sc(C(N)=O)c(N)c23)c1C` | 22.61 |
| `CC(=O)N1CCCC2(C1)CN(C(=O)Cc1ccccc1)CCO2` (stereo not given) | -9.921 |
| `Cl.Cn1ncc2c1CCCC2NCc1cccc(F)c1` (stereo not given) | 10.75 |
| `O=c1[nH]c2cc(S(=O)(=O)N3CCC(c4ccsc4)CC3)ccc2o1` | 8.623 |
| `Cc1csc(NC(=O)C2CCN(Cc3cccc4c3OCCO4)CC2)n1` | 2.97 |
| `COC(=O)CNC(=O)c1cn(Cc2ccccc2F)nn1` | -53.08 |
| `CCn1cc(CNCC(c2ccc(Cl)cc2)n2cccn2)cn1` (stereo not given) | 6.68 |
| `Cc1cc(F)c(S(=O)(=O)NCc2ccnc(N(C)C)n2)cc1F` | -7.101 |
| `CCOC(=O)CC(NC(=O)c1cn(Cc2ccccc2F)nn1)C(C)C` (stereo not given) | 1.826 |
| `Cc1ccc(CN2CCC3(CC2)CCN(C(=O)c2cccnc2)C3)o1.O=C(O)C(F)(F)F` | -36.37 |
| `Cc1ccc(NC(=O)N(C)C)c(C(=O)OCC(=O)NC(C)C(C)C)c1` (stereo not given) | -4.53 |
| `CC(C)c1nccc(N2CCN(CC(=O)N3CCOCC3)CC2)n1` | -0.1806 |
| `Cn1cc(N2CCCC(Nc3ccc4c(c3)CCC(=O)N4)C2=O)cn1` (stereo not given) | 11.66 |
| `CC(C)NC(=O)Nc1ccc(-c2nc3c([nH]2)CCNC3)cc1` | -1.112 |
| `O=C(NCc1cnc2n1CCN(Cc1nccs1)C2)c1ccno1.O=C(O)C(F)(F)F` | -14.23 |
| `O=C(O)C(F)(F)F.[H][C@@]12CN(c3ccc(C)nn3)C[C@H](C(=O)NCC3CC3)[C@]1([H])CCO2` | -35.23 |
| `Cc1nc(C2(NCc3ccc(C#N)cc3F)CCCCC2)no1` | 0.1297 |
| `CC(=O)N1CCC2(C1)CN(C(=O)C1CCOC1)C2` (stereo not given) | -0.7027 |
| `Cc1cnn(CC2CCCCN2C(=O)Cc2ccc(C#N)cc2)c1` (stereo not given) | -1.054 |
| `COc1ccc(NC(=O)C(c2cccc(F)c2)N2CCOCC2)cc1` (stereo not given) | -0.6536 |
| `CC(Cn1cccn1)NC(=O)N1CCC(NS(C)(=O)=O)CC1` (stereo not given) | 1.883 |
| `Cc1nc(N2CC[C@@H](c3ccc4ccccc4c3)[C@H](O)C2)no1` | 12.35 |
| `CC1CCCN(C(=O)c2ncncc2Cl)C1` (stereo not given) | -3.962 |
| `Cc1ccc(CC(=O)N(C)CC2(O)CCCN(c3ccccn3)C2)s1` (stereo not given) | 1.036 |
| `N#Cc1cnc(NC2CCN(C(=O)C3CCCCC3)CC2)c(Cl)c1` | 7.159 |
| `[H][C@@]12CCN(CC3CC3)C[C@@]1([H])[C@H](C(=O)N1CCCC1)CCO2` | -7.409 |
| `c1ccc(COCC2CN(Cc3ccsc3)Cc3nccn3C2)nc1` (stereo not given) | -4.882 |
| `CC(=O)N1CC(=O)N(c2ccsc2)CC12CCN(Cc1ccoc1)C2` (stereo not given) | -0.1714 |
| `O=C1CC2(CCN(Cc3cccs3)C2)CN1c1cccc(F)c1` (stereo not given) | 17.88 |
| `CC(C)c1nnc2n1CCN(C(=O)CN(C)Cc1ccccc1)C2` | -10.3 |
| `CCN(CCn1cccn1)C(=O)CN1C(=O)OC[C@@H]1C(C)C` | 9.149 |

For reference, 3 entries once more:

structure	effect
c1ccc(COCC2CN(Cc3ccsc3)Cc3nccn3C2)nc1 (stereo not given)	-4.882
[H][C@@]12CCN(CC3CC3)C[C@@]1([H])[C@H](C(=O)N1CCCC1)CCO2	-7.409
CCn1cc(CNCC(c2ccc(Cl)cc2)n2cccn2)cn1 (stereo not given)	6.68